# Source: the supplement of paper PMC8728848
# Some of the results follow.
# B1: Erv46-EDTA (Saccharomyces cerevisiae), P39727 (protein)
# chain: MKFLVNVALVFMVVYISYIYAAAPEHHHHHHDYDIPTTENLYFQGAMDSVVTRPQLVVDRDRHAKLELNMDVTFPSMPCDLVNLDIMDDSGEMQLDILDAGFTMSRLNSEGRPVGDATELHVGGNGDGTAPVNNDPNYCGPCYGAKDQSQNENLAQEEKVCCQDCDAVRSAYLEAGWAFFDGKNIEQCEREGYVSKINEHLNEGCRIKGSAQINRIQGNLHFAPGKPYQNAYGHFHDTSLYDKTSNLNFNHIINHLSFGKPIQSHSKLLGNDKRHGGAVVATSPLDGRQVFPDRNTHFHQFSYFAKIVPTRYEYLDNVVIETAQFSATFHSRPLAGGRDKDHPNTLHVRGGIPGMFVFFEMSPLKVINKEQ
# Assays:
# Assay in all cases: glycan array binding signal (z-score within array); higher = stronger binding
# Conditions in all cases: glycan notation: IUPAC condensed, linker removed
# [1] = target: Neu5Ac(a2-6)Gal(b1-4)GlcNAc(b1-3)[Neu5Ac(a2-6)Gal(b1-4)GlcNAc(b1-6)]GalNAc
# In short: (§1)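 The binding signal is a Z-score computed within each array and averaged over linkers. Arrays of the same protein sequence at different concentrations or buffers were also averaged together. Data originate from 3228 arrays in the Consortium for Functional Glycomics database, kept only where the protein sequence was available.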
# [2] = target: Neu5Ac(a2-6)Gal(b1-4)GlcNAc(b1-6)GalNAc
# In short: as §1
# [3] = target: Neu5Ac(a2-6)Gal(b1-4)GlcNAc(b1-6)[Gal(b1-3)GlcNAc(b1-3)]Gal(b1-4)Glc
# In short: as §1
# [4] = target: Neu5Ac(a2-6)Gal(b1-4)GlcNAc(b1-6)[Gal(b1-3)]GalNAc
# In short: as §1
# [5] = target: Neu5Ac(a2-6)Gal(b1-4)GlcNAc6S
# In short: as §1
# Neu5Ac(a2-6)GalNAc = target: Neu5Ac(a2-6)GalNAc
# In short: as §1
# [6] = target: Neu5Ac(a2-6)GalNAc(b1-4)GlcNAc
# In short: as §1
# [7] = target: Neu5Ac(a2-6)GalNAc(b1-4)GlcNAc6S
# In short: as §1
# [8] = target: Neu5Ac(a2-6)GlcNAc(b1-4)GlcNAc
# In short: as §1
# [9] = target: Neu5Ac(a2-6)GlcNAc(b1-4)GlcNAc(b1-4)GlcNAc
# In short: as §1
# Neu5Ac(a2-8)Neu5Ac = target: Neu5Ac(a2-8)Neu5Ac
# In short: as §1
# [10] = target: Neu5Ac(a2-8)Neu5Ac(a2-3)Gal(b1-3)GalNAc(b1-4)[Neu5Ac(a2-3)]Gal(b1-4)Glc
# In short: as §1
# [11] = target: Neu5Ac(a2-8)Neu5Ac(a2-3)Gal(b1-3)GalNAc(b1-4)[Neu5Ac(a2-8)Neu5Ac(a2-3)]Gal(b1-4)Glc
# In short: as §1
# [12] = target: Neu5Ac(a2-8)Neu5Ac(a2-3)Gal(b1-4)Glc
# In short: as §1
# [13] = target: Neu5Ac(a2-8)Neu5Ac(a2-3)Gal(b1-4)GlcNAc
# In short: as §1
# [14] = target: Neu5Ac(a2-8)Neu5Ac(a2-3)[Gal(b1-3)GalNAc(b1-4)]Gal(b1-4)Glc
# In short: as §1
# [15] = target: Neu5Ac(a2-8)Neu5Ac(a2-3)[GalNAc(b1-4)]Gal(b1-4)Glc
# In short: as §1
# [16] = target: Neu5Ac(a2-8)Neu5Ac(a2-8)Neu5Ac
# In short: as §1
# [17] = target: Neu5Ac(a2-8)Neu5Ac(a2-8)Neu5Ac(a2-3)Gal(b1-4)Glc
# In short: as §1
# [18] = target: Neu5Ac(a2-8)Neu5Ac(a2-8)Neu5Ac(a2-3)[Gal(b1-3)GalNAc(b1-4)]Gal(b1-4)Glc
# In short: as §1
# [19] = target: Neu5Ac(a2-8)Neu5Ac(a2-8)Neu5Ac(a2-3)[GalNAc(b1-4)]Gal(b1-4)Glc
# In short: as §1
# [20] = target: Neu5Ac(a2-8)Neu5Ac(a2-8)Neu5Ac(a2-8)Neu5Ac(a2-3)[GalNAc(b1-4)]Gal(b1-4)Glc
# In short: as §1
# [21] = target: Neu5Ac(a2-8)Neu5Gc(a2-3)Gal(b1-4)GlcNAc
# In short: as §1
# [22] = target: Neu5Ac(b2-6)Gal(b1-4)GlcNAc
# In short: as §1
# Neu5Ac(b2-6)GalNAc = target: Neu5Ac(b2-6)GalNAc
# In short: as §1
# [23] = target: Neu5Ac9Ac(a2-3)Gal(b1-3)GlcNAc
# In short: as §1
# [24] = target: Neu5Ac9Ac(a2-3)Gal(b1-4)GlcNAc
# In short: as §1
# [25] = target: Neu5Ac9Ac(a2-6)Gal(b1-4)GlcNAc
# In short: as §1
# [26] = target: Neu5Gc(a2-3)Gal(b1-3)GlcNAc
# In short: as §1
# [27] = target: Neu5Gc(a2-3)Gal(b1-3)[Fuc(a1-4)]GlcNAc
# In short: as §1
# Neu5Gc(a2-3)Gal(b1-4)Glc = target: Neu5Gc(a2-3)Gal(b1-4)Glc
# In short: as §1
# [28] = target: Neu5Gc(a2-3)Gal(b1-4)GlcNAc
# In short: as §1
# [29] = target: Neu5Gc(a2-3)Gal(b1-4)GlcNAc(b1-3)Gal(b1-4)GlcNAc(b1-2)Man(a1-3)[Neu5Gc(a2-3)Gal(b1-4)GlcNAc(b1-3)Gal(b1-4)GlcNAc(b1-2)Man(a1-6)]Man(b1-4)GlcNAc(b1-4)GlcNAc
# In short: as §1
# [30] = target: Neu5Gc(a2-3)Gal(b1-4)[Fuc(a1-3)]GlcNAc
# In short: as §1
# [31] = target: Neu5Gc(a2-6)Gal(b1-4)GlcNAc
# In short: as §1
# Neu5Gc(a2-6)GalNAc = target: Neu5Gc(a2-6)GalNAc
# In short: as §1
# [32] = target: Neu5Gc(a2-8)Neu5Ac(a2-3)Gal(b1-4)GlcNAc
# In short: as §1
# [33] = target: Neu5Gc(a2-8)Neu5Gc(a2-3)Gal(b1-4)GlcNAc
# In short: as §1
binder,measurement,setting,value
B1,glycan array binding signal (z-score),[1],-0.309
same,glycan array binding signal (z-score),[2],-0.855
same,glycan array binding signal (z-score),[3],0.307
same,glycan array binding signal (z-score),[4],-0.492
same,glycan array binding signal (z-score),[5],-0.686
same,glycan array binding signal (z-score),Neu5Ac(a2-6)GalNAc,-1.03
same,glycan array binding signal (z-score),[6],-0.615
same,glycan array binding signal (z-score),[7],-0.583
same,glycan array binding signal (z-score),[8],-0.42
same,glycan array binding signal (z-score),[9],-0.318
same,glycan array binding signal (z-score),Neu5Ac(a2-8)Neu5Ac,-0.058
same,glycan array binding signal (z-score),[10],-0.029
same,glycan array binding signal (z-score),[11],0.502
same,glycan array binding signal (z-score),[12],-0.647
same,glycan array binding signal (z-score),[13],-0.501
same,glycan array binding signal (z-score),[14],-0.605
same,glycan array binding signal (z-score),[15],0.381
same,glycan array binding signal (z-score),[16],-0.012
same,glycan array binding signal (z-score),[17],-0.677
same,glycan array binding signal (z-score),[18],1.25
same,glycan array binding signal (z-score),[19],-0.316
same,glycan array binding signal (z-score),[20],0.023
same,glycan array binding signal (z-score),[21],-0.576
same,glycan array binding signal (z-score),[22],-0.403
same,glycan array binding signal (z-score),Neu5Ac(b2-6)GalNAc,-0.481
same,glycan array binding signal (z-score),[23],0.057
same,glycan array binding signal (z-score),[24],-0.546
same,glycan array binding signal (z-score),[25],-0.848
same,glycan array binding signal (z-score),[26],0.38
same,glycan array binding signal (z-score),[27],0.376
same,glycan array binding signal (z-score),Neu5Gc(a2-3)Gal(b1-4)Glc,-0.748
same,glycan array binding signal (z-score),[28],-0.531
same,glycan array binding signal (z-score),[29],0.192
same,glycan array binding signal (z-score),[30],0.625
same,glycan array binding signal (z-score),[31],-0.2
same,glycan array binding signal (z-score),Neu5Gc(a2-6)GalNAc,-0.516
same,glycan array binding signal (z-score),[32],-0.817
same,glycan array binding signal (z-score),[33],-0.338

# Already shown: entries from further up.
binder,measurement,setting,value
B1,glycan array binding signal (z-score),[23],0.057
same,glycan array binding signal (z-score),[24],-0.546
